Source: PMC5399188
No constants are given. Whether binding was seen depends on the method and setting. In cells and extracts the contact can be indirect. Some entries that bind do so weakly or less than the wild type. Tags and fused reporters may be left off the sequences shown.

Protein sequences, listed by entry. Tags and fused reporters are not part of them.
UniProt Q15796: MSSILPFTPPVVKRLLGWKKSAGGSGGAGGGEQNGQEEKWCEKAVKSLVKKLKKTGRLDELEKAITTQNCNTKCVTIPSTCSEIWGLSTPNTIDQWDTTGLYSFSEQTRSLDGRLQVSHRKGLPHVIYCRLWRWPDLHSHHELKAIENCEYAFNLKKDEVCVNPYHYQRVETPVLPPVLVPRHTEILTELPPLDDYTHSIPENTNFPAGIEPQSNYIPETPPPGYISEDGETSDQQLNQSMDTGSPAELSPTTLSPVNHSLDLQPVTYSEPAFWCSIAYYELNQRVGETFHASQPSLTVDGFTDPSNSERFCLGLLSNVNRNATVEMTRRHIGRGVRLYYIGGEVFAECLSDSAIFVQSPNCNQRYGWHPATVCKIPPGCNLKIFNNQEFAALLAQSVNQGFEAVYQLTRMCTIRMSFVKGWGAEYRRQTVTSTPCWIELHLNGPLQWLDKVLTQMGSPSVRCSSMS
UniProt P84022: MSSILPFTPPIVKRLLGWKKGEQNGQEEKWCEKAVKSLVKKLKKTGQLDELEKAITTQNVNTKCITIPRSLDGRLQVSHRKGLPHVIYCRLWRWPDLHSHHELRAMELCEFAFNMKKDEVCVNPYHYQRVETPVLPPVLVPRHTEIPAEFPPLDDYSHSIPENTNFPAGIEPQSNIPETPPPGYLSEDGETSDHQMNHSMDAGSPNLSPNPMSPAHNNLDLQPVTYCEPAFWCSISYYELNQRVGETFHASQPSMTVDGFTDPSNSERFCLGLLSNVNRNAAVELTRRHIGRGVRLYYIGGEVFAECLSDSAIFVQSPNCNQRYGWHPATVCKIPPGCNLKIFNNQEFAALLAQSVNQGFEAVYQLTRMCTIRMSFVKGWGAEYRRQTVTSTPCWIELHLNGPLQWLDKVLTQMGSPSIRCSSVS

Columns and labels:
[1] = molecular target: HA-VC155-SMAD2 (UniProt Q15796); assay: split reporter; BiFC competition in HEK293 cells: FLAG-VN173-AIMP1 with 0.5 ug HA-VC155-SMAD2 or -SMAD3 in the presence or absence of Myc-AIMP1 (0.1, 0.5 or 1 ug); read 24 h after transfection, fluorescent signals counted
[2] = molecular target: HA-VC155-SMAD3 (UniProt P84022); assay: as above

- binding [1]: binds
- binding [2]: binds
B1: myc-AIMP1 (protein, UniProt Q12904 1-312)
chain: MANNDAVLKRLEQKGAEADQIIEYLKQQVSLLKEKAILQATLREEKKLRVENAKLKKEIEELKQELIQAEIQNGVKQIPFPSGTPLHANSMVSENVIQSTAVTTVSSGTKEQIKGGTGDEKKAKEKIEKKGEKKEKKQQSIAGSADSKPIDVSRLDLRIGCIITARKHPDADSLYVEEVDVGEIAPRTVVSGLVNHVPLEQMQNRMVILLCNLKPAKMRGVLSQAMVMCASSPEKIEILAPPNGSVPGDRITFDAFPGEPDKELNPKKKIWEQIQPDLHTNDECVATYKGVPFEVKGKGVCRAQTMSNSGIK
